Experimental data as given in patent US20140087400A1.
Results are given in words; binding and its absence hold for the method and conditions named. Some results given as binding are weak or reduced against the parent protein; the word gives no strength.

Sequences of proteins named here, by UniProt entry; tags and fusion partners are left off. A change or cut given only in a name is not applied to a line headed by its entry.
UniProt P60983: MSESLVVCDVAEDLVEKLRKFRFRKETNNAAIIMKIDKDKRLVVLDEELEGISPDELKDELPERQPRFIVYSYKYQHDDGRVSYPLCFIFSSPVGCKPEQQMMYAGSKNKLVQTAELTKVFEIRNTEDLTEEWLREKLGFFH

Tests used:
[1] = target: glia maturation factor beta (human) (UniProt P60983); experiment: immunohistochemistry on primary breast cancer tissue sections
[2] = target: glia maturation factor beta (human) (UniProt P60983); experiment: immunohistochemistry on metastatic breast cancer and lymph node tissue sections

binding [1]: binds
binding [2]: binds
B1: Alper-sGMF-B mAb (antibody, V domains shown)
VH: VQLQQSGPELVKPGASVKMSCKASGYTFTSYVMHWVKQKPGQGLEWIGYINPYNEGTKYNEKFKGKATLTSDKSSSTAYMELSSLTSEDSAVYYCARSTMITTGFAYWGQGTTVT
VL: DILMTQSPSSLSASLGGKVTITCKASQDINKYIAWYQHKPGEGPRLLIHYTSTLQPGIPSRFSGSGSGRDYSFSITNLEPEDIATYYCLQYDNLWTFGGGTKLEIK
